This is one part of the list. How the calls were made is not given here. Repeats in this data set agree poorly, so a single value says little.
tested on: Lgr5 (MarsCy1-Lgr5-EGFP, U2OS); experiment: cell-surface Lgr5 expression (SCi1 fluorescence, background-subtracted) relative to WT DMSO (fold of DMSO control); higher = more Lgr5 at the plasma membrane; settings: U2OS MarsCy1-Lgr5-EGFP stable; treatment time: overnight; library: Kinase Gold; 20 µM
Protocol: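 U2OS cells stably expressing MarsCy1-Lgr5-EGFP in 384-well plates were incubated overnight with single-dose compounds. Cell-surface Lgr5 was stained with SCi1 and scanned at 700 nm on a LI-COR Odyssey. Intensity was background-subtracted (parental U2OS) and expressed relative to WT DMSO wells.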

| Compound | cell-surface Lgr5 expression |
| --- | --- |
| CC(=O)Nc1c(C(=O)O)[nH]c2ccccc12 | inactive: 0.894 |
| CC(Oc1ccc2c(c1)oc(=O)c1ccccc12)C(=O)O (centres undefined) | inactive: 0.82 |
| Cc1ccc(C(=O)Nc2ncc([N+](=O)[O-])s2)cc1C | inactive: 0.705 |
| O=C(Nc1cc2cc[nH]c2cn1)c1ccccc1 | inactive: 0.789 |

From the supplement of paper PMC4683952
